Results as given in patent publication US20220085295A1, “Novel Compound and Organic Light Emitting Device Comprising the Same” (LG Chem, Ltd., priority 2019, published 2022).

Assay: Evaluation of characteristics of organic light emitting device (compound as light emitting layer dopant)
Conditions: for Lifetime (hr @1000 nit): T90: time for luminance to be reduced to 90% of initial luminance (1000 nit); for Driving voltage (V @10 mA/cm^2) / Luminous efficiency (cd/A @10 mA/cm^2) / Power efficiency (lm/W @10 mA/cm^2): organic light emitting device, current density 10 mA/cm^2

Compound | Lifetime (hr @1000 nit) | Driving voltage (V @10 mA/cm^2) | Luminous efficiency (cd/A @10 mA/cm^2) | Power efficiency (lm/W @10 mA/cm^2)
CC(C)(C)c1ccc(N(c2ccc(C(C)(C)C)cc2)c2ccc(C3(c4ccc(C(C)(C)C)cc4)c4cc(N(c5ccccc5)c5ccc(C(C)(C)C)cc5)ccc4-c4c3cc(N(c3ccccc3)c3ccc(C(C)(C)C)cc3)c3oc5ccccc5c43)cc2)cc1 (stereo not shown) [Compound 1] | 351 h | 4.37 V | 5.29 cd/A | 3.75 lm/W
CC(C)(C)c1ccc(N(c2ccc(C(C)(C)C)cc2)c2ccc(C3(c4ccc(C(C)(C)C)cc4)c4cc(N(c5ccc(C(C)(C)C)cc5)c5cccc6c5oc5ccccc56)ccc4-c4c3cc(N(c3ccc(C(C)(C)C)cc3)c3cccc5c3oc3ccccc35)c3oc5ccccc5c43)cc2)cc1 (stereo not shown) [Compound 2] | 340 h | 4.31 V | 5.20 cd/A | 3.77 lm/W
CC(C)(C)c1ccc(N(c2ccc(C(C)(C)C)cc2)c2ccc(C3(c4ccc(C(C)(C)C)cc4)c4cc(N(c5ccccc5)c5ccc(C(C)(C)C)cc5)ccc4-c4c3cc(N(c3ccccc3)c3ccc(C(C)(C)C)cc3)c3c4-c4ccccc4C3(C)C)cc2)cc1 (stereo not shown) [Compound 3] | 365 h | 4.28 V | 5.37 cd/A | 3.95 lm/W
CC(C)(C)c1ccc(N(c2ccc(C(C)(C)C)cc2)c2ccc(C3(c4ccc(C(C)(C)C)cc4)c4cc(N(c5ccc(C(C)(C)C)cc5)c5cccc6c5oc5ccccc56)ccc4-c4c3cc(N(c3ccc(C(C)(C)C)cc3)c3cccc5c3oc3ccccc35)c3c4-c4ccccc4C3(C)C)cc2)cc1 (stereo not shown) [Compound 4] | 366 h | 4.29 V | 5.35 cd/A | 3.90 lm/W
CC(C)(C)c1ccc(N(c2ccc(C(C)(C)C)cc2)c2ccc(C3(c4ccc(C(C)(C)C)cc4)c4cc(N(c5ccccc5)c5ccc(C(C)(C)C)cc5)c5c(oc6ccccc65)c4-c4c3cc(N(c3ccccc3)c3ccc(C(C)(C)C)cc3)c3oc5ccccc5c43)cc2)cc1 (stereo not shown) [Compound 5] | 339 h | 4.35 V | 5.26 cd/A | 3.69 lm/W
CC(C)(C)c1ccc(N(c2ccc(C(C)(C)C)cc2)c2ccc(C3(c4ccc(C(C)(C)C)cc4)c4cc(N(c5ccc(C(C)(C)C)cc5)c5cccc6c5oc5ccccc56)c5c(oc6ccccc65)c4-c4c3cc(N(c3ccc(C(C)(C)C)cc3)c3cccc5c3oc3ccccc35)c3oc5ccccc5c43)cc2)cc1 (stereo not shown) [Compound 6] | 347 h | 4.38 V | 5.51 cd/A | 3.81 lm/W
CC(C)(C)c1ccc(Oc2ccc(C3(c4ccc(C(C)(C)C)cc4)c4cc(N(c5ccccc5)c5ccc(C(C)(C)C)cc5)c5c(oc6ccccc65)c4-c4c3cc(N(c3ccccc3)c3ccc(C(C)(C)C)cc3)c3oc5ccccc5c43)cc2)cc1 (stereo not shown) [Compound 7] | 335 h | 4.27 V | 5.30 cd/A | 3.81 lm/W
CC(C)(C)c1ccc(Sc2ccc(C3(c4ccc(C(C)(C)C)cc4)c4cc(N(c5ccccc5)c5ccc(C(C)(C)C)cc5)c5c(oc6ccccc65)c4-c4c3cc(N(c3ccccc3)c3ccc(C(C)(C)C)cc3)c3oc5ccccc5c43)cc2)cc1 (stereo not shown) [Compound 8] | 342 h | 4.32 V | 5.24 cd/A | 3.75 lm/W
Cc1ccc(C)c(C2(c3ccc([Si](C)(C)C)cc3)c3cc(N(c4ccccc4)c4ccc(C(C)(C)C)cc4)c4c(oc5ccccc54)c3-c3c2cc(N(c2ccccc2)c2ccc(C(C)(C)C)cc2)c2oc4ccccc4c32)c1 (stereo not shown) [Compound 9] | 340 h | 4.33 V | 5.29 cd/A | 3.77 lm/W
CC(C)(C)c1ccc(N(c2ccccc2)c2ccc3c(c2)C2(c4ccccc4-c4ccccc42)c2cc(N(c4ccccc4)c4ccc(C(C)(C)C)cc4)c4c(oc5ccccc54)c2-3)cc1 [Compound BD, reference compound] | 312 h | 4.40 V | 5.17 cd/A | 3.61 lm/W
